Laboratory results from patent US6911429B2, “Compositions and methods for treating cellular response to injury and other proliferating cell disorders regulated by hyaladherin and hyaluronans” (Transition Therapeutics Inc., priority 1999, dated 2005).
Results are given in words; binding and its absence hold for the method and conditions named. Binding seen in cells or lysates may run through a third protein. Some entries that bind do so weakly or less than the wild type. Where a sequence is shown, tags or fusion partners need not be part of it.

Chains of the proteins cited; added tags and fusions are not shown. Residues count along the entry.
UniProt Q63844, residues 2-380: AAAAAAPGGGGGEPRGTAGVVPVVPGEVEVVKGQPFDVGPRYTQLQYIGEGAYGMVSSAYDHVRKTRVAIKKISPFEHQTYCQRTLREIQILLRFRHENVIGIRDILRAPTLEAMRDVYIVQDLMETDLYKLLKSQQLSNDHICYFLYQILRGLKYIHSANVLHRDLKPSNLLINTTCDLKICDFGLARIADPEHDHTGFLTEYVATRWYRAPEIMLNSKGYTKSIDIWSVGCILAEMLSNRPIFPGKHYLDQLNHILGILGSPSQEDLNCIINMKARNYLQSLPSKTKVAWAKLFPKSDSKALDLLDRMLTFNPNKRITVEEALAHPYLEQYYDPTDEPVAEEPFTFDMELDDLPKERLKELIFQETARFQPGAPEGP

How the values were obtained:
[1] = molecular target: erk1 kinase (cellular, in 10T1/2 and transfected cell lines) (UniProt Q63844); assay: co-immunoprecipitation from cell lysates, western blot
[2] = molecular target: erk1 kinase (cellular, in 10T1/2 and transfected cell lines) (UniProt Q63844); assay: in vivo co-immunoprecipitation (figure legend)
[3] = molecular target: erk1 kinase (cellular, in 10T1/2 and transfected cell lines) (UniProt Q63844); assay: in vivo co-immunoprecipitation

binding [1]: binds
binding [2]: binds
binding [3]: binds
B1: RHAMM v5 (95 kDa full length murine RHAMM) (receptor, UniProt Q00547 1-794, looked up)
chain: MSFPKAPLKRFNDPSGCAPSPGAYDVKTSEATKGPVSFQKSQRFKNQRESQQNLNIDKDTTLLASAKKAKKSVSKKDSQKNDKDVKRLEKEIRALLQERGTQDKRIQDMESELEKTEAKLNAAVREKTSLSASNASLEKRLTELTRANELLKAKFSEDGHQKNMRALSLELMKLRNKRETKMRSMMVKQEGMELKLQATQKDLTESKGKIVQLEGKLVSIEKEKIDEKCETEKLLEYIQEISCASDQVEKCKVDIAQLEEDLKEKDREILSLKQSLEENITFSKQIEDLTVKCQLLETERDNLVSKDRERAETLSAEMQILTERLALERQEYEKLQQKELQSQSLLQQEKELSARLQQQLCSFQEEMTSEKNVFKEELKLALAELDAVQQKEEQSERLVKQLEEETKSTAEQLTRLDNLLREKEVELEKHIAAHAQAILIAQEKYNDTAQSLRDVTAQLESVQEKYNDTAQSLRDVTAQLESEQEKYNDTAQSLRDVTAQLESEQEKYNDTAQSLRDVTAQLESVQEKYNDTAQSLRDVTAQLESYKSSTLKEIEDLKLENLTLQEKVAMAEKSVEDVQQQILTAESTNQEYARMVQDLQNRSTLKEEEIKEITSSFLEKITDLKNQLRQQDEDFRKQLEEKGKRTAEKENVMTELTMEINKWRLLYEELYEKTKPFQQQLDAFEAEKQALLNEHGATQEQLNKIRDSYAQLLGHQNLKQKIKHVVKLKDENSQLKSEVSKLRSQLVKRKQNELRLQGELDKALGIRHFDPSKAFCHASKENFTPLKEGNPNCC
